Measured values taken from PubChem BioAssay AID504834 (National Center for Advancing Translational Sciences (NCATS), 2011).
Several values for one entry are separate records, joined by “and”; a condition that tells them apart may be missing. Identical values can stand only once. About 22,000 (6.9%) of roughly 320,000 compounds were called active. This list was built around the results that the source calls inconclusive (neither active nor inactive); the mix of calls is not that of the screen. Calls come from the whole dose curve; as a rule, active = well fitted inhibition curve with a large enough effect; inconclusive = small, poorly fitted or top-dose-only effect, or another doubt; inactive = no such curve, though single readings can be large or run the other way. A potency beside an inconclusive call is a rough fit, not a confirmed value.

Experiment: Primary qHTS for delayed death inhibitors of the malarial parasite plastid, 96 hour incubation
Conditions: P. falciparum luciferase reporter growth; series mostly up to 28.7 µM
Method in brief: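 Readout is luminescence from an integrated firefly luciferase in P. falciparum. Red cells, 2% hematocrit and 0.05% parasitemia final, were cultured with compound through two parasite generations (96 hours) at 37 C, 5% CO2.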
Potency is the fitted concentration of half-maximal effect.

Compound | Potency
Cc1nn(C)c2ncc(C(=O)c3ccccc3O)cc12 | inactive
CCC(C)(C)n1nnnc1C(c1cc2cc(C)cc(C)c2[nH]c1=O)N1CCCC1 (stereo not given) | inconclusive: 18.5 µM [inhibitor, single point]
COc1ccc(CCNC(=O)C2CC(=O)N(c3ccc(C)cc3)C2)cc1 (stereo not given) | inconclusive: 18.5 µM [inhibitor, single point]
Cc1csc(Sc2nc3c(c(=O)[nH]c(=O)n3C)n2CCCc2ccccc2)n1 | inconclusive: 0.522 µM [inhibitor, full curve, poor fit]
Cc1ccc(/C=C/C(=O)N2CCCN(C(=O)/C=C/c3ccc(C)cc3)CC2)cc1 | inconclusive: 10.4 µM [inhibitor, single point]
COc1ccccc1N1CCN(S(=O)(=O)c2cc(C)sc2C)CC1 | active: 4.65 µM
Cc1cccc(NC(=O)C2CCN(S(=O)(=O)c3cccc4nonc34)CC2)c1 | inconclusive: 3.7 µM [inhibitor, partial curve]
CCCN1CCC(=O)N([C@H](COc2ccccc2)CC(C)C)CC1 | inactive
COC(=O)C1CN(C(=O)COc2ccc(Cl)c(C)c2)c2ccccc2O1 (stereo not given) | inactive
Cc1cc(C)nc(SCc2cc(=O)c(OC(=O)c3ccc(Br)o3)co2)n1 | inconclusive: 11.7 µM [inhibitor, single point]
CCOc1ccc(-n2c([S-])c(C(=O)Nc3ccc(S(=O)(=O)N4CCOCC4)cc3)[n+]3cc(C(N)=O)ccc23)cc1 | inconclusive: 18.5 µM [inhibitor, single point]
CCc1ccc(NS(=O)(=O)c2cc3c(cc2C)n(C)c(=O)c(=O)n3C)cc1 | inactive
Cc1nc(N2CCN(Cc3ccccc3)CC2)nc2c1C(=O)CCC2 | inactive
O=C(Cn1[nH]c(=O)c2ccccc2c1=O)NNC(=O)c1ccccc1 | inactive
CN(C)c1ccc(S(=O)(=O)N2CCCCC2)cc1NC(=O)CN1C(=O)NC2(CCCC2)C1=O | inconclusive: 18.5 µM [inhibitor, single point]
CCN1CCc2[nH]c3ccccc3c2C1 | inconclusive: 18.5 µM [inhibitor, single point]
CCOc1ccccc1N(CC(=O)N1CCCCCC1)S(C)(=O)=O | inconclusive: 11.7 µM [inhibitor, partial curve, poor fit]
Cc1cc(NC(=O)CSCC(=O)Nc2nc3ccccc3[nH]2)no1 | inactive
OCC[C@H]1C[C@H](O)[C@@H](O)[C@@]2(CCCCO2)O1 | inactive
Cc1cccc(N2C(=O)CC(N3CCN(c4ccccn4)CC3)C2=O)c1 (stereo not given) | inactive
CN(CC(=O)Nc1ccc(F)cc1)C(=O)c1cccc(S(=O)(=O)N2CCN(c3ccc(F)cc3)CC2)c1 | inconclusive: 13.1 µM [inhibitor, single point]
Cc1ccc(-c2ccc(=O)n(CC(=O)NCCCN3CCCCC3)n2)cc1 | inconclusive: 10.4 µM [inhibitor, partial curve, poor fit]
CC(C)c1onc(C(=O)N2CCN(c3ccccc3)CC2)c1[N+](=O)[O-] | inconclusive: 4.15 µM [inhibitor, single point]
COc1ccc(OC)c(NC(=O)c2cccc(Cn3cc(Br)c([N+](=O)[O-])n3)c2)c1 | inconclusive: 16.5 µM [inhibitor, partial curve, poor fit]

Compound | Potency
Cc1ccc(S(=O)(=O)NNC(=O)Nc2cccc(C)c2C)c(C)c1 | inconclusive: 10.4 µM [inhibitor, partial curve]
O=C(Nc1ccc2oc(-c3ccccc3)nc2c1)c1ccccc1F | inconclusive: 11.7 µM [inhibitor, single point]
Cc1c(C(=O)OCC(C)C)[nH]c2c1C(=O)CC(c1ccco1)C2 (stereo not given) | inactive
CSc1cc(C)nc(N(C)C(C)=O)n1 | inconclusive: 5.86 µM [inhibitor, partial curve, poor fit]
CCCNC(=O)c1c(NC(=O)C2COc3ccccc3O2)sc2c1CCCC2 (stereo not given) | active: 10.4 µM
O=C(/C=C/c1c(Cl)cccc1Cl)N1CCOCC1 | inactive
NC12CC3CC(CC(C3)C1)C2 | inconclusive: 16.9 µM [inhibitor, single point] and inconclusive: 4.65 µM [inhibitor, partial curve, poor fit]
CCOc1cccc(/C=N/NC(=S)Nc2ccccc2[N+](=O)[O-])c1O | inconclusive: 2.62 µM [inhibitor, full curve, poor fit]
N=c1sccn1CC(=O)NC(c1ccccc1)c1ccccc1 | inactive
Cc1ccccc1NC(=O)c1cc2ccccn2n1 | inactive
COC(=O)C1=C(c2ccc(F)cc2OCc2ccccc2)C[C@@H]2CC[C@H]1N2C(=O)NCc1ccc([N+](=O)[O-])cc1 | inconclusive: 4.65 µM [inhibitor, partial curve]
COc1ccc(S(=O)(=O)N2CCOCC2)cc1NC(=O)COc1ccc(C(C)=O)cc1OC | inactive
COc1ccc2cc3cc(C(=O)NCc4cccnc4)oc3nc2c1 | inconclusive: 0.415 µM [inhibitor, full curve, poor fit]
CC(C)CC(=O)Nc1ccc(Nc2ccccc2)cc1 | inactive
Cc1ccc(S(=O)(=O)Nc2cccnc2)cc1 | inconclusive: 18.5 µM [inhibitor, single point]
CC(=O)Nc1cccc(C(=O)OC(C)C(=O)NC(=O)NC2CCCCC2)c1 (stereo not given) | inactive
COc1ccccc1CCN=C(N)NS(=O)(=O)c1ccccc1 | inconclusive: 0.415 µM [inhibitor, full curve, poor fit]
CCc1cc2c3c(c1)/C(=C1/SC(N)=NC1=O)C(=O)N3C(C)(C)C=C2C | inconclusive: 1.47 µM [inhibitor, full curve, poor fit]
Cc1cc(NC(=O)CSc2n[nH]c(-c3ccc(Cl)cc3Cl)n2)no1 | inactive
CCOc1ccccc1C(=O)NCC(=O)NCCCc1ccccc1 | inconclusive: 18.5 µM [inhibitor, single point]
Cc1ccc(-c2nnc(Nc3ccc(C(=O)N(C)C)cc3)c3ccccc23)cc1S(=O)(=O)NCC1CCCO1 (stereo not given) | inconclusive: 0.928 µM [inhibitor, full curve]
CC(=O)NC(NC(=S)Nc1cccc(Br)c1)C(Cl)(Cl)Cl (stereo not given) | inconclusive: 14.7 µM [inhibitor, partial curve, poor fit]
Cc1ccccc1-c1ncc(CN2CCN(C3CCCC3)C(CCO)C2)cn1 (stereo not given) | inactive
C=CCn1cc(/C=N/NC(=O)COc2cccc3cccnc23)c2ccccc21 | inconclusive: 3.29 µM [inhibitor, full curve]

Compound | Potency
CCCC1=C(C(=O)OCC)C(c2cc(Cl)cc(OC)c2OCc2ccccc2)NC(=O)N1 (stereo not given) | inconclusive: 0.165 µM [inhibitor, full curve, poor fit]
COc1ccccc1NC(=O)c1cc(-c2cc(OC)c(OC)c(OC)c2)nc2ccccc12 | inconclusive: 2.94 µM [inhibitor, full curve]
Cc1cccc(Nc2nnc(SCC(=O)NCc3cccs3)s2)c1C | active: 6.57 µM
CC(C)N(Cc1cnn(C)c1)C(=O)c1ccc(OC2CCN(Cc3ccccn3)CC2)cc1 | inconclusive: 11.7 µM [inhibitor, partial curve, poor fit]
CCC1SC2=NC(C)=C(C(=O)OC)C(c3ccc(C)cc3)N2C1=O (stereo not given) | inconclusive: 18.5 µM [inhibitor, partial curve, poor fit]
CC(C)CNC(=O)CC1Nc2ccccc2NC1=O (stereo not given) | inconclusive: 18.5 µM [inhibitor, single point]
Cn1cc(CN2CCN(CC(C)(C)C)C(CCO)C2)c2ccccc21 (stereo not given) | active: 1.47 µM
O=c1[nH]c2ccc(S(=O)(=O)N3CCCC3)cc2[nH]1 | inactive
CC(=O)Nc1nc(C)c(CCCOc2ccc([N+](=O)[O-])cc2)c(=O)[nH]1 | inconclusive: 6.57 µM [inhibitor, partial curve]
COc1ccc(CC(=O)NC2CCCCCC2)c(OC)c1 | inactive
O=C(CCc1ccc(S(=O)(=O)N2CCOCC2)cc1)NCCc1ccccn1 | inconclusive: 0.0522 µM [inhibitor, full curve, poor fit]
O=C(c1ccc(S(=O)(=O)NCc2ccco2)cc1)N1CCN(c2ccc(F)cc2)CC1 | inconclusive: 9.28 µM [inhibitor, single point]
O=C(NC1CCCCC1)c1cccc(S(=O)(=O)N2CCCCC2)c1 | active: 4.15 µM
[O-][N+]1=C(c2cccs2)CN(O)C1 | active: 1.65 µM
COCCn1cnc2c1c(=O)n(Cc1ccc(Br)cc1)c(=O)n2Cc1ccccc1 | inconclusive: 18.5 µM [inhibitor, single point]
CCN(CC)C(=O)c1nn(-c2ccccc2)c2c1C1CCC2(C)C1(C)C (stereo not given) | inconclusive: 7.38 µM [inhibitor, partial curve, poor fit]
Cc1nc(N)sc1N=Nc1ccccc1C(F)(F)F | inconclusive: 18.5 µM [inhibitor, single point]
COc1ccc(CNC(=O)C(c2ccco2)N(C(=O)Cc2cccs2)c2cccnc2)cc1 (stereo not given) | inconclusive: 18.5 µM [inhibitor, single point]
Cn1nc([N+](=O)[O-])nc1S(C)(=O)=O | active: 4.65 µM
CC(=O)N(CCO)Cc1cc2cc(C)cc(C)c2[nH]c1=O | inconclusive: 11.7 µM [inhibitor, partial curve, poor fit]
Cc1nn(C(=O)c2nn(C)cc2[N+](=O)[O-])c(C)c1Cl | inactive
CCC(C)(C)NC(=O)C(Sc1ccccc1)c1ccccc1 (stereo not given) | active: 10.4 µM
